Results taken from ChEMBL document CHEMBL5444388, “Affinity Phenotypic Cellular Literature for EUbOPEN Chemogenomic Library” (2024).
The source gives many values for each of these; only a part stands here.

Protein sequences, listed by entry. Tags and fused reporters are not part of them. Lines headed by an entry give the natural chain unless they say otherwise; changes in a name come on top.
UniProt Q02224: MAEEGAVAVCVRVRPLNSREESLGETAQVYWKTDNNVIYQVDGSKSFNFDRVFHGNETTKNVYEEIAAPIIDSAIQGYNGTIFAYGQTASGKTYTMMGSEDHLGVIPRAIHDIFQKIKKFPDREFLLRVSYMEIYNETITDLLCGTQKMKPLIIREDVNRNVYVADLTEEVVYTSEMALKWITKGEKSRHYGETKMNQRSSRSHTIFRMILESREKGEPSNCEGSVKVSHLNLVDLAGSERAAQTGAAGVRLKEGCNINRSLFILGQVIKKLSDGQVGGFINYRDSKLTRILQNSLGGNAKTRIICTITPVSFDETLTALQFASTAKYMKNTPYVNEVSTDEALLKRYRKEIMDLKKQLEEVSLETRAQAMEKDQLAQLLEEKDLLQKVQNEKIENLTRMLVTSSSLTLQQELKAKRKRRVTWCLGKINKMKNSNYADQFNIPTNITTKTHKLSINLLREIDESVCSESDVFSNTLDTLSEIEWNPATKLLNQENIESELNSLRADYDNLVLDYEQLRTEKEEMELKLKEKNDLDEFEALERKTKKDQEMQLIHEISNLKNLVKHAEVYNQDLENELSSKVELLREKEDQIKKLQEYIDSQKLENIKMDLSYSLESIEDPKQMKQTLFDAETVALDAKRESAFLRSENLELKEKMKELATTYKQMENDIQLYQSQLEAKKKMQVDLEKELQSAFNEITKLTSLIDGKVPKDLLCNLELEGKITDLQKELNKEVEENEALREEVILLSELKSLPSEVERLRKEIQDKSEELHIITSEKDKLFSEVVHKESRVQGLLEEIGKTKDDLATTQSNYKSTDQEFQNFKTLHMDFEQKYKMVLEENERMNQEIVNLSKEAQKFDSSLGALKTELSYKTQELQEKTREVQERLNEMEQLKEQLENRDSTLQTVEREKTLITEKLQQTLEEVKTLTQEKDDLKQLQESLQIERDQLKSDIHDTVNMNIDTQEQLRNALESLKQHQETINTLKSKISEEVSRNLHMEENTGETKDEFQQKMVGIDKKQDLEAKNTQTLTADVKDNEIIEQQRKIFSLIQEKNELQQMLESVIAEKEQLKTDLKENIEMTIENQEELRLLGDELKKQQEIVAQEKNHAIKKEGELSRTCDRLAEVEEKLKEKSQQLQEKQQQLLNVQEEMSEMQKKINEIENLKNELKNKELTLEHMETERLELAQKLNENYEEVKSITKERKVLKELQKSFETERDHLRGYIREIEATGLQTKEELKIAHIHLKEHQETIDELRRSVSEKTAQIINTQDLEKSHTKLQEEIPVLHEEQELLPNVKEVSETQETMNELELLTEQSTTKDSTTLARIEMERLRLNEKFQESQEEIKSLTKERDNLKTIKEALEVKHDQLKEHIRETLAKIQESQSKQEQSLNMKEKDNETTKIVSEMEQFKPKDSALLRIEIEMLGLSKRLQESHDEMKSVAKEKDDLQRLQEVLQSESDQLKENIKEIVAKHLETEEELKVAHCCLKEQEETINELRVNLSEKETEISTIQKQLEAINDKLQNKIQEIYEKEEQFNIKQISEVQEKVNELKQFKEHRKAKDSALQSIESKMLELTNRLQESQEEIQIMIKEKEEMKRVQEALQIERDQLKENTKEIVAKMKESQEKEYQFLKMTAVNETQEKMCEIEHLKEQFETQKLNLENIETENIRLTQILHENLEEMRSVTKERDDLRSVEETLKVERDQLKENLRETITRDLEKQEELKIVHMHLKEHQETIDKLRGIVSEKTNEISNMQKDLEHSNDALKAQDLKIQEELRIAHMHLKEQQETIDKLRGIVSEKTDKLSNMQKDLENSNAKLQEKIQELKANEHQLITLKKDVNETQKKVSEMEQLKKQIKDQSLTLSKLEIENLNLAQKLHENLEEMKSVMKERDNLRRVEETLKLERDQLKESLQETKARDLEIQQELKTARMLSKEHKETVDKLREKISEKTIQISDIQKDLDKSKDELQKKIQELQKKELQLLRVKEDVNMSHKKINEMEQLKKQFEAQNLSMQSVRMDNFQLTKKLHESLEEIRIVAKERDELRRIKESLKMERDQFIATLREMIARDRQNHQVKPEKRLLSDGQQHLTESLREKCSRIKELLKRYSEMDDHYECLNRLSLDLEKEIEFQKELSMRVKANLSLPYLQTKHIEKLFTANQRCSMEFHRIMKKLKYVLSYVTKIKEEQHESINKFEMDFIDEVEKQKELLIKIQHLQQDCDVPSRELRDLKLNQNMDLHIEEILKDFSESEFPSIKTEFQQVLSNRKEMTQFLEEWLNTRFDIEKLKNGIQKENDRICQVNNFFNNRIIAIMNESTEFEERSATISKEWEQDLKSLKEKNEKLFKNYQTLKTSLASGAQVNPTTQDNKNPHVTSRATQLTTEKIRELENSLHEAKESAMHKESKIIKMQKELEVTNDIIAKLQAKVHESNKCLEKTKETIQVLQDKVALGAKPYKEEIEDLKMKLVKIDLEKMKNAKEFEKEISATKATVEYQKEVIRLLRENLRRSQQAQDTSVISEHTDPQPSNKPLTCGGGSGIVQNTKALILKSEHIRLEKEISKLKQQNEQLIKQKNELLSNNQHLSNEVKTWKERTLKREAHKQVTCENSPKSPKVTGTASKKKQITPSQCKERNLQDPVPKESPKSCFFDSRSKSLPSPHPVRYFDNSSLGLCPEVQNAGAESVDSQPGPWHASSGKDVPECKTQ

Columns and labels:
Assay type in all cases: functional, cell-based
Set-up in all cases: recommended concentration 100 nM
[1] = molecular target: Centromere-associated protein E (Homo sapiens) (UniProt Q02224); test: Affinity Phenotypic Cellular interaction: (Cell-growth inhibition assays (growth inhibitory effect colon cancer cell line A172)) EUB0000734a CENPE; details: A 172, Affinity Phenotypic Cellular Source Knowledge https://pubmed.ncbi.nlm.nih.gov/20167803/
[2] = molecular target: Centromere-associated protein E (Homo sapiens) (UniProt Q02224); test: Affinity Phenotypic Cellular interaction: (Cell-growth inhibition assays (growth inhibitory effect colon cancer cell line A427)) EUB0000734a CENPE; details: A-427, Affinity Phenotypic Cellular Source Knowledge https://pubmed.ncbi.nlm.nih.gov/20167803/
[3] = molecular target: Centromere-associated protein E (Homo sapiens) (UniProt Q02224); test: Affinity Phenotypic Cellular interaction: (Cell-growth inhibition assays (growth inhibitory effect colon cancer cell line A-498)) EUB0000734a CENPE; details: A498, Affinity Phenotypic Cellular Source Knowledge https://pubmed.ncbi.nlm.nih.gov/20167803/
[4] = molecular target: Centromere-associated protein E (Homo sapiens) (UniProt Q02224); test: Affinity Phenotypic Cellular interaction: (Cell-growth inhibition assays (growth inhibitory effect colon cancer cell line ACHN)) EUB0000734a CENPE; details: Affinity Phenotypic Cellular Source Knowledge https://pubmed.ncbi.nlm.nih.gov/20167803/
[5] = molecular target: Centromere-associated protein E (Homo sapiens) (UniProt Q02224); test: Affinity Phenotypic Cellular interaction: (Cell-growth inhibition assays (growth inhibitory effect colon cancer cell line BC-1)) EUB0000734a CENPE; details: BC1, Affinity Phenotypic Cellular Source Knowledge https://pubmed.ncbi.nlm.nih.gov/20167803/
[6] = molecular target: Centromere-associated protein E (Homo sapiens) (UniProt Q02224); test: Affinity Phenotypic Cellular interaction: (Cell-growth inhibition assays (growth inhibitory effect colon cancer cell line BPH1)) EUB0000734a CENPE; details: BPH-1, Affinity Phenotypic Cellular Source Knowledge https://pubmed.ncbi.nlm.nih.gov/20167803/
[7] = molecular target: Centromere-associated protein E (Homo sapiens) (UniProt Q02224); test: Affinity Phenotypic Cellular interaction: (Cell-growth inhibition assays (growth inhibitory effect colon cancer cell line COLO 320HSR)) EUB0000734a CENPE; details: Affinity Phenotypic Cellular Source Knowledge https://pubmed.ncbi.nlm.nih.gov/20167803/
[8] = molecular target: Centromere-associated protein E (Homo sapiens) (UniProt Q02224); test: Affinity Phenotypic Cellular interaction: (Cell-growth inhibition assays (growth inhibitory effect colon cancer cell line GCT)) EUB0000734a CENPE; details: Affinity Phenotypic Cellular Source Knowledge https://pubmed.ncbi.nlm.nih.gov/20167803/
[9] = molecular target: Centromere-associated protein E (Homo sapiens) (UniProt Q02224); test: Affinity Phenotypic Cellular interaction: (Cell-growth inhibition assays (growth inhibitory effect colon cancer cell line HepG2)) EUB0000734a CENPE; details: Affinity Phenotypic Cellular Source Knowledge https://pubmed.ncbi.nlm.nih.gov/20167803/
[10] = molecular target: Centromere-associated protein E (Homo sapiens) (UniProt Q02224); test: Affinity Phenotypic Cellular interaction: (Cell-growth inhibition assays (growth inhibitory effect colon cancer cell line HPAFII)) EUB0000734a CENPE; details: HPAF-II, Affinity Phenotypic Cellular Source Knowledge https://pubmed.ncbi.nlm.nih.gov/20167803/
[11] = molecular target: Centromere-associated protein E (Homo sapiens) (UniProt Q02224); test: Affinity Phenotypic Cellular interaction: (Cell-growth inhibition assays (growth inhibitory effect colon cancer cell line J82)) EUB0000734a CENPE; details: Affinity Phenotypic Cellular Source Knowledge https://pubmed.ncbi.nlm.nih.gov/20167803/
[12] = molecular target: Centromere-associated protein E (Homo sapiens) (UniProt Q02224); test: Affinity Phenotypic Cellular interaction: (Cell-growth inhibition assays (growth inhibitory effect colon cancer cell line KATOIII)) EUB0000734a CENPE; details: KATO III, Affinity Phenotypic Cellular Source Knowledge https://pubmed.ncbi.nlm.nih.gov/20167803/
[13] = molecular target: Centromere-associated protein E (Homo sapiens) (UniProt Q02224); test: Affinity Phenotypic Cellular interaction: (Cell-growth inhibition assays (growth inhibitory effect colon cancer cell line Malme-3M)) EUB0000734a CENPE; details: Affinity Phenotypic Cellular Source Knowledge https://pubmed.ncbi.nlm.nih.gov/20167803/
[14] = molecular target: Centromere-associated protein E (Homo sapiens) (UniProt Q02224); test: Affinity Phenotypic Cellular interaction: (Cell-growth inhibition assays (growth inhibitory effect colon cancer cell line MCF 10A)) EUB0000734a CENPE; details: Affinity Phenotypic Cellular Source Knowledge https://pubmed.ncbi.nlm.nih.gov/20167803/
[15] = molecular target: Centromere-associated protein E (Homo sapiens) (UniProt Q02224); test: Affinity Phenotypic Cellular interaction: (Cell-growth inhibition assays (growth inhibitory effect colon cancer cell line MDA-MB-175-VII)) EUB0000734a CENPE; details: Affinity Phenotypic Cellular Source Knowledge https://pubmed.ncbi.nlm.nih.gov/20167803/
[16] = molecular target: Centromere-associated protein E (Homo sapiens) (UniProt Q02224); test: Affinity Phenotypic Cellular interaction: (Cell-growth inhibition assays (growth inhibitory effect colon cancer cell line NCI-H2052)) EUB0000734a CENPE; details: Affinity Phenotypic Cellular Source Knowledge https://pubmed.ncbi.nlm.nih.gov/20167803/
[17] = molecular target: Centromere-associated protein E (Homo sapiens) (UniProt Q02224); test: Affinity Phenotypic Cellular interaction: (Cell-growth inhibition assays (growth inhibitory effect colon cancer cell line NCI-H322)) EUB0000734a CENPE; details: Affinity Phenotypic Cellular Source Knowledge https://pubmed.ncbi.nlm.nih.gov/20167803/
[18] = molecular target: Centromere-associated protein E (Homo sapiens) (UniProt Q02224); test: Affinity Phenotypic Cellular interaction: (Cell-growth inhibition assays (growth inhibitory effect colon cancer cell line NCI-H520)) EUB0000734a CENPE; details: Affinity Phenotypic Cellular Source Knowledge https://pubmed.ncbi.nlm.nih.gov/20167803/
[19] = molecular target: Centromere-associated protein E (Homo sapiens) (UniProt Q02224); test: Affinity Phenotypic Cellular interaction: (Cell-growth inhibition assays (growth inhibitory effect colon cancer cell line NCI-H526)) EUB0000734a CENPE; details: Affinity Phenotypic Cellular Source Knowledge https://pubmed.ncbi.nlm.nih.gov/20167803/
[20] = molecular target: Centromere-associated protein E (Homo sapiens) (UniProt Q02224); test: Affinity Phenotypic Cellular interaction: (Cell-growth inhibition assays (growth inhibitory effect colon cancer cell line NCI-H661)) EUB0000734a CENPE; details: Affinity Phenotypic Cellular Source Knowledge https://pubmed.ncbi.nlm.nih.gov/20167803/
[21] = molecular target: Centromere-associated protein E (Homo sapiens) (UniProt Q02224); test: Affinity Phenotypic Cellular interaction: (Cell-growth inhibition assays (growth inhibitory effect colon cancer cell line NCI-H82)) EUB0000734a CENPE; details: Affinity Phenotypic Cellular Source Knowledge https://pubmed.ncbi.nlm.nih.gov/20167803/
[22] = molecular target: Centromere-associated protein E (Homo sapiens) (UniProt Q02224); test: Affinity Phenotypic Cellular interaction: (Cell-growth inhibition assays (growth inhibitory effect colon cancer cell line RKO)) EUB0000734a CENPE; details: Affinity Phenotypic Cellular Source Knowledge https://pubmed.ncbi.nlm.nih.gov/20167803/
[23] = molecular target: Centromere-associated protein E (Homo sapiens) (UniProt Q02224); test: Affinity Phenotypic Cellular interaction: (Cell-growth inhibition assays (growth inhibitory effect colon cancer cell line RPMI2650)) EUB0000734a CENPE; details: RPMI-2650, Affinity Phenotypic Cellular Source Knowledge https://pubmed.ncbi.nlm.nih.gov/20167803/
[24] = molecular target: Centromere-associated protein E (Homo sapiens) (UniProt Q02224); test: Affinity Phenotypic Cellular interaction: (Cell-growth inhibition assays (growth inhibitory effect colon cancer cell line SCC-12)) EUB0000734a CENPE; details: Affinity Phenotypic Cellular Source Knowledge https://pubmed.ncbi.nlm.nih.gov/20167803/
[25] = molecular target: Centromere-associated protein E (Homo sapiens) (UniProt Q02224); test: Affinity Phenotypic Cellular interaction: (Cell-growth inhibition assays (growth inhibitory effect colon cancer cell line SCLC-3)) EUB0000734a CENPE; details: NL-SCLC3, Affinity Phenotypic Cellular Source Knowledge https://pubmed.ncbi.nlm.nih.gov/20167803/
[26] = molecular target: Centromere-associated protein E (Homo sapiens) (UniProt Q02224); test: Affinity Phenotypic Cellular interaction: (Cell-growth inhibition assays (growth inhibitory effect colon cancer cell line ST486)) EUB0000734a CENPE; details: Affinity Phenotypic Cellular Source Knowledge https://pubmed.ncbi.nlm.nih.gov/20167803/
[27] = molecular target: Centromere-associated protein E (Homo sapiens) (UniProt Q02224); test: Affinity Phenotypic Cellular interaction: (Cell-growth inhibition assays (growth inhibitory effect colon cancer cell line U20S)) EUB0000734a CENPE; details: U2OS, Affinity Phenotypic Cellular Source Knowledge https://pubmed.ncbi.nlm.nih.gov/20167803/
[28] = molecular target: Centromere-associated protein E (Homo sapiens) (UniProt Q02224); test: Affinity Phenotypic Cellular interaction: (Cell-growth inhibition assays (growth inhibitory effect colon cancer cell line UACC-62)) EUB0000734a CENPE; details: Affinity Phenotypic Cellular Source Knowledge https://pubmed.ncbi.nlm.nih.gov/20167803/

CC(C)Oc1ccc(C(=O)N[C@H](CNC(=O)CN(C)C)Cc2ccc(-c3cn4cccc([C@H](C)O)c4n3)cc2)cc1Cl
GIC50 [1]: 27 nM | GIC50 [2]: 97 nM | GIC50 [3]: 81 nM | GIC50 [4]: 61 nM | GIC50 [5]: 83 nM | GIC50 [6]: 52 nM | GIC50 [7]: 153 nM | GIC50 [8]: 23 nM | GIC50 [9]: 31 nM | GIC50 [10]: 5.03 µM | GIC50 [11]: 114 nM | GIC50 [12]: 79 nM | GIC50 [13]: 51 nM | GIC50 [14]: 16 nM | GIC50 [15]: 23 nM | GIC50 [16]: 44 nM | GIC50 [17]: 25 nM | GIC50 [18]: 34 nM | GIC50 [19]: 88 nM | GIC50 [20]: 22 nM | GIC50 [21]: 18 nM | GIC50 [22]: 53 nM | GIC50 [23]: 36 nM | GIC50 [24]: 33 nM | GIC50 [25]: 31 nM | GIC50 [26]: 26 nM | GIC50 [27]: 45 nM | GIC50 [28]: 25 nM
